# Measured values published in the supplement of paper PMC6411743.
# ± gives the standard deviation of the averaged measurements. The list shows a part of the results, in another mix than the full data.
# Key:
# Experiment in all cases: NP40-soluble protein abundance relative to vehicle (solubility fold change) (ratio); higher = more soluble protein in presence of AMP-PNP
# PIBF1 = biological target: T1, PIBF1 (UniProt Q8WXW3)
# T1 sequence (whole entry): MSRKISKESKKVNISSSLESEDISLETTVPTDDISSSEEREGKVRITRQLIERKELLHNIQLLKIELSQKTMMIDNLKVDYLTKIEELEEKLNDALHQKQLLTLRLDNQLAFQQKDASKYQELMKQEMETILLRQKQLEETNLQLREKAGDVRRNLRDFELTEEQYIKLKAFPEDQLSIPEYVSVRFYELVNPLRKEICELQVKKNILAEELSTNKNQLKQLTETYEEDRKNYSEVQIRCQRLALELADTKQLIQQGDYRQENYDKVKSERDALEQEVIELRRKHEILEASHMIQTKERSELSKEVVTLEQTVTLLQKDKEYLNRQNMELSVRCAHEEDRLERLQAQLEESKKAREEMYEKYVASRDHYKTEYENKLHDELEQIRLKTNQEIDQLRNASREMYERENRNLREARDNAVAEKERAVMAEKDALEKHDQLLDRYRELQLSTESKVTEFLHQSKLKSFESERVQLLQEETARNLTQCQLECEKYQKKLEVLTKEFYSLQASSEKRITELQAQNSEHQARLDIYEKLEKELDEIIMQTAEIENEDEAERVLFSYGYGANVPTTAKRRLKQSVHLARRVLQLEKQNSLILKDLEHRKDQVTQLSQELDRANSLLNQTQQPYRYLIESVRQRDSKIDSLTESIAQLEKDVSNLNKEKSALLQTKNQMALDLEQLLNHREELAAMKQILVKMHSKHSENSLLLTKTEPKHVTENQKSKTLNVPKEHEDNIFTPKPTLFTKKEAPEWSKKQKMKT
# Procedure, shortened: (§1)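 Crude Jurkat lysate, prepared by Dounce homogenisation, was exposed to eight concentrations from 0.1 to 10 mM for 10 min at room temperature and then 3 min at 37 °C. Solubilisation used 0.8% NP40 with benzonase for 60 min at 4 °C, followed by ultracentrifugation and TMT labelling of the supernatant for LC-MS/MS. After vsn normalisation of intensities, each value is the fold change against the detergent-processed vehicle within each replicate, across three independent experiments.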
# RBM15B = biological target: T2, RBM15B (UniProt Q8NDT2)
# T2 sequence (whole entry): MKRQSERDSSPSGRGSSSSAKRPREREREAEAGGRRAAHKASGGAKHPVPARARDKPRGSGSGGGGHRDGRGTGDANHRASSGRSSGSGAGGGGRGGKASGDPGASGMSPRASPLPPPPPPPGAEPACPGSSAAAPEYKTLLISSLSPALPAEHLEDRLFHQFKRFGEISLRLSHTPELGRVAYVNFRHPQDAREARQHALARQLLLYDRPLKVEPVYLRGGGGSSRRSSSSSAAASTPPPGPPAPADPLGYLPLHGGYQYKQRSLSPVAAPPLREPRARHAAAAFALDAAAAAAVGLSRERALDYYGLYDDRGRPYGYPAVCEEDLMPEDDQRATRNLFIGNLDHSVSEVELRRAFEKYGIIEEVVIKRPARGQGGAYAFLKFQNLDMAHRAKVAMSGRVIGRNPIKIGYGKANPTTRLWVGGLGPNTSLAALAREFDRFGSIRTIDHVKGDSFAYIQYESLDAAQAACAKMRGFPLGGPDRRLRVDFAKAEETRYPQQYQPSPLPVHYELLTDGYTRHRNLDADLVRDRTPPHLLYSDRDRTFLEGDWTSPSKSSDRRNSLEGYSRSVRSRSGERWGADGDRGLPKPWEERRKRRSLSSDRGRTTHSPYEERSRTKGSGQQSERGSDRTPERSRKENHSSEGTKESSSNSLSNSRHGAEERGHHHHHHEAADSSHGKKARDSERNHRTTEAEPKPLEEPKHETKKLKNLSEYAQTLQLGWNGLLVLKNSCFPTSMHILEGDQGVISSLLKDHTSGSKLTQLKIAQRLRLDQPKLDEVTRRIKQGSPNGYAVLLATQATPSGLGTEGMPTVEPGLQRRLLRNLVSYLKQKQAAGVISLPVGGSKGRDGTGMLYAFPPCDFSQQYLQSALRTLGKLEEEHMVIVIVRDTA
# Procedure, shortened: as §1
# SEMA4D = biological target: T3, SEMA4D (UniProt Q92854)
# T3 sequence (whole entry): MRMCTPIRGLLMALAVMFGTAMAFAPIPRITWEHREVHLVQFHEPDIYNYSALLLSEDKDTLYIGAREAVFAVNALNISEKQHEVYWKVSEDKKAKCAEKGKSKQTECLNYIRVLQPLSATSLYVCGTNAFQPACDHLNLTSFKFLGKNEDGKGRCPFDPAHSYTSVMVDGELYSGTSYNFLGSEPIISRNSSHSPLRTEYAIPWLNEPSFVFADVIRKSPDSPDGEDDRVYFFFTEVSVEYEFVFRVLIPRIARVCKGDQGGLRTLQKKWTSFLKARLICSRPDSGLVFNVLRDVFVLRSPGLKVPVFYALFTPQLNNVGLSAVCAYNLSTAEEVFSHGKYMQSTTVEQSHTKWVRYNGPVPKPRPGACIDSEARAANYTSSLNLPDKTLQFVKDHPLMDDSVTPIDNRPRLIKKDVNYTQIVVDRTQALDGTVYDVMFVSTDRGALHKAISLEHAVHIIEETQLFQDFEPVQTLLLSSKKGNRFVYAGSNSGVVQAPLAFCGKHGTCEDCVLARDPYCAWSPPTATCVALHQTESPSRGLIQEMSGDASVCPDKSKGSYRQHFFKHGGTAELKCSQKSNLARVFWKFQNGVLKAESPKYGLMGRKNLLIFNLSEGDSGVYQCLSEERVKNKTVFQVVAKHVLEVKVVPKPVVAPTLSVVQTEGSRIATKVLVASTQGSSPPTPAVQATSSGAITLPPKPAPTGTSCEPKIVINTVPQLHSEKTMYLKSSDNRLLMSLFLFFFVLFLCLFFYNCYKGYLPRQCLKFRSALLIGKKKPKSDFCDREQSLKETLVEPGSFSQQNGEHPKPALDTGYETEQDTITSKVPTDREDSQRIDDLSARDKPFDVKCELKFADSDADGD
# Procedure, shortened: as §1
# SYMPK = biological target: T4, SYMPK (UniProt Q92797)
# T4 sequence (whole entry): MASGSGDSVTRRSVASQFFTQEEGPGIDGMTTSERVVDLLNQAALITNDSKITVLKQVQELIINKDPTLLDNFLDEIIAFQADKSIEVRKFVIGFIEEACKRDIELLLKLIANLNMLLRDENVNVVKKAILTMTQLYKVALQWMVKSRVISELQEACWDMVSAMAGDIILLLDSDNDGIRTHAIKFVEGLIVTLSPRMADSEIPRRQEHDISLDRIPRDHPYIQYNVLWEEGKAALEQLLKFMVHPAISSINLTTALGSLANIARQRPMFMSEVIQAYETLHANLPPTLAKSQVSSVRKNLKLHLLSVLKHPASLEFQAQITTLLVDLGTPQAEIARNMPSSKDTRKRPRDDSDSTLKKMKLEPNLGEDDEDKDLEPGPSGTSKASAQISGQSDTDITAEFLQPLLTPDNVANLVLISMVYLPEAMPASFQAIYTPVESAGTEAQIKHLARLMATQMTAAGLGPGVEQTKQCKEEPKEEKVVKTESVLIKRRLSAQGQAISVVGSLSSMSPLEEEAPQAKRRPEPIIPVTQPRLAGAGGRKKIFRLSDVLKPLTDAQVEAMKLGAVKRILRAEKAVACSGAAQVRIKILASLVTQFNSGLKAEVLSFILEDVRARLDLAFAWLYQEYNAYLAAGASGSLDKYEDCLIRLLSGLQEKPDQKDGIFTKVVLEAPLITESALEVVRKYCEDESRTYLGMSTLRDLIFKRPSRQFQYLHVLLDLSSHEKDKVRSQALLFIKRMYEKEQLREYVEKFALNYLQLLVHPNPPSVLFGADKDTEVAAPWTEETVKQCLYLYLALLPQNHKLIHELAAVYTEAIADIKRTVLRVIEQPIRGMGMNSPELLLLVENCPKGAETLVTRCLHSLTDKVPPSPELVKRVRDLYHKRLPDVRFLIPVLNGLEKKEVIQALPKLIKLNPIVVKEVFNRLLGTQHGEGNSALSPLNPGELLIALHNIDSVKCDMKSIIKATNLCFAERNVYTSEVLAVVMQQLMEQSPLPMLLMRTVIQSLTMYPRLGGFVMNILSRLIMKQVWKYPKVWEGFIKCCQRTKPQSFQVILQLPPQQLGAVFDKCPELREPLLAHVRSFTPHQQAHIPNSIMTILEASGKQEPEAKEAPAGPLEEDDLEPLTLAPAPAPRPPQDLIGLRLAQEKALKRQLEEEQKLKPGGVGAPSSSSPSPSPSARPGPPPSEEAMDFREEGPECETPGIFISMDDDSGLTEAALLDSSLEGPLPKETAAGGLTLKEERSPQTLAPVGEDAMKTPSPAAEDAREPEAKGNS
# Procedure, shortened: as §1
compound,measurement,setting,value
Nc1ncnc2c1ncn2[C@@H]1O[C@H](COP(=O)(O)OP(=O)(O)NP(=O)(O)O)[C@@H](O)[C@H]1O [adenylyl imidodiphosphate],NP40-soluble protein abundance,PIBF1; concentration: 8mM,0.987 ± 0.033
same,NP40-soluble protein abundance,PIBF1; concentration: 10mM,1 ± 0.059
same,NP40-soluble protein abundance,RBM15B; concentration: 1mM,0.987 ± 0.021
same,NP40-soluble protein abundance,RBM15B; concentration: 2mM,1 ± 0.019
same,NP40-soluble protein abundance,RBM15B; concentration: 4mM,1.03 ± 0.03
same,NP40-soluble protein abundance,RBM15B; concentration: 6mM,1.1 ± 0.053
same,NP40-soluble protein abundance,RBM15B; concentration: 8mM,1.11 ± 0.051
same,NP40-soluble protein abundance,RBM15B; concentration: 10mM,1.16 ± 0.06
same,NP40-soluble protein abundance,SEMA4D; concentration: 1mM,1 ± 0.013
same,NP40-soluble protein abundance,SEMA4D; concentration: 2mM,1.05 ± 0.074
same,NP40-soluble protein abundance,SEMA4D; concentration: 4mM,0.992 ± 0.043
same,NP40-soluble protein abundance,SEMA4D; concentration: 6mM,1.01 ± 0.04
same,NP40-soluble protein abundance,SEMA4D; concentration: 8mM,1 ± 0.02
same,NP40-soluble protein abundance,SEMA4D; concentration: 10mM,1.03 ± 0.016
same,NP40-soluble protein abundance,SYMPK; concentration: 1mM,0.998 ± 0.036
same,NP40-soluble protein abundance,SYMPK; concentration: 2mM,0.989 ± 0.024
same,NP40-soluble protein abundance,SYMPK; concentration: 4mM,1.02 ± 0.045

# Part of the list above, as tab-separated lines.
compound	measurement	setting	value
Nc1ncnc2c1ncn2[C@@H]1O[C@H](COP(=O)(O)OP(=O)(O)NP(=O)(O)O)[C@@H](O)[C@H]1O [adenylyl imidodiphosphate]	NP40-soluble protein abundance	RBM15B; concentration: 1mM	0.987 ± 0.021
same	NP40-soluble protein abundance	RBM15B; concentration: 2mM	1 ± 0.019
